Source: article PMC7887271, “Fast acting allosteric phosphofructokinase inhibitors block trypanosome glycolysis and cure acute African trypanosomiasis in mice” (Nature Communications, 2021)
“And” between values parts separate entries of the source, which are not always exact repeats. Equal entries are not always repeated. Further values from the same series stand in other lists.

Biological target: T1, TbPFK (Trypanosoma brucei brucei, UniProt O15648)
T1 construct: made in house; host or cells: Escherichia coli C41 (pET28a, codon optimised gene)
T1 sequence (O15648 1-487): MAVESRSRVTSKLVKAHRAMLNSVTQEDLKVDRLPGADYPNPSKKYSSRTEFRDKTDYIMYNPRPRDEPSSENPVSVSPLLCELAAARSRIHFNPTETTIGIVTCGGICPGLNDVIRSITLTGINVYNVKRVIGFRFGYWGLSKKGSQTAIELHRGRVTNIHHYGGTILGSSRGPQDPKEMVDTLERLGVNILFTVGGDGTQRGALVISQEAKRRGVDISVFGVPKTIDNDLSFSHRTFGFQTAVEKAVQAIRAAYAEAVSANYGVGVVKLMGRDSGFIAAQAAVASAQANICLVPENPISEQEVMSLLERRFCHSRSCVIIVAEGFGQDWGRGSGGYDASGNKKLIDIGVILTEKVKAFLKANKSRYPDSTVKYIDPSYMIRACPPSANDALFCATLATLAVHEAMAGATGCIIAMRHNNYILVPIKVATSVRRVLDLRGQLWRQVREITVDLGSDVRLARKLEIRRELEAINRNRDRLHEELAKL
Assay: ALDO/G3PDH/TIM linked enzyme assay for measuring PFK inhibition
Assay type: biochemical
Parameters: key: absorbance at 340 nm (NADH)
Procedure: In the PFK/PYK/LDH assay, the linked PYK activity acts to convert the ADP produced by PFK back to ATP. As ATP is an inhibitor of human PFK (but not TbPFK) at concentrations higher than ~0.5 mM the regeneration of ATP is likely to affect the assay readout. An alternative linked assay was therefore developed using PFK/aldolase (ALDO)/glycerol-3-phosphate dehydrogenase (G3PD)/triosephosphate isomerase (TIM). In this assay F16BP produced by PFK is subsequently converted by aldolase into dihydroxyacetone phosphate (DHAP) and glyceraldehyde 3-phosphate (GA3P). TIM interconverts GA3P and DHAP, and DHAP is reduced to glycerol 3-phosphate by G3PD, alongside the oxidation of NADH to NAD^+, which was measured by observing the change in UV absorbance at 340 nm for 10 minutes at 25° C using a Spectramax© M5 Multimode plate reader.
The assay buffer consisted of 50 mM TEA, 100 mM KCl, 10 mM MgCl2, 10% glycerol, 1 mM Tris(2-carboxyethyl)phosphine (TCEP), pH 7.4. Assay mix consisted of 5 U/ml G3PD (Sigma-Aldrich G6880), 2.5 U/ml ALDO (Sigma-Aldrich A2714), 25 U/ml TIM (Sigma-Aldrich T6258), and 1.25 mM NADH. ATP and F6P were obtained from Sigma-Aldrich (A2383 and F3627, respectively). All ligands and substrates (including ATP) were used at pH 7.4). 40 µl of assay mix, followed by 45 µl assay buffer, 4 µl of 0.1 mg/ml PFK and 1 µl of 100x serially diluted inhibitors were added to a non-binding, clear 96-well plate (Greiner Bio-One 655901) and incubated at RT for 10 minutes. The reaction was started by addition of 10 µl of 6 mM F6P (Supplementary Table 1).

CN(C)CCn1ccc2c(ccn2Cc2ccc(Cl)c(Cl)c2)c1=O [CTCB 405]
TbPFK reaction time course reading (Figure 6a) (1.29 uM CTCB 405, time 0.277778): 0.8008 and 0.7629 | TbPFK reaction time course reading (Figure 6a) (1.29 uM CTCB 405, time 0.295139): 0.7991 and 0.762 | TbPFK reaction time course reading (Figure 6a) (1.29 uM CTCB 405, time 0.3125): 0.7976 and 0.761 | TbPFK reaction time course reading (Figure 6a) (1.29 uM CTCB 405, time 0.329861): 0.796 and 0.7587 | TbPFK reaction time course reading (Figure 6a) (1.29 uM CTCB 405, time 0.347222): 0.7954 and 0.7588 | TbPFK reaction time course reading (Figure 6a) (1.29 uM CTCB 405, time 0.364583): 0.7938 and 0.7583 | TbPFK reaction time course reading (Figure 6a) (1.29 uM CTCB 405, time 0.381944): 0.7919 and 0.7571 | TbPFK reaction time course reading (Figure 6a) (1.29 uM CTCB 405, time 0.399306): 0.7917 and 0.7553 | TbPFK reaction time course reading (Figure 6a) (1.29 uM CTCB 405, time 0.416667): 0.7896 and 0.7548 | TbPFK reaction time course reading (Figure 6a) (3.88 uM CTCB 405, time 0.0173611): 0.8137 and 0.7683 | TbPFK reaction time course reading (Figure 6a) (3.88 uM CTCB 405, time 0.0347222): 0.8145 and 0.7686 | TbPFK reaction time course reading (Figure 6a) (3.88 uM CTCB 405, time 0.0520833): 0.8155 and 0.7693 | TbPFK reaction time course reading (Figure 6a) (3.88 uM CTCB 405, time 0.0694444): 0.8156 and 0.7696 | TbPFK reaction time course reading (Figure 6a) (3.88 uM CTCB 405, time 0.0868056): 0.8168 and 0.7698 | TbPFK reaction time course reading (Figure 6a) (3.88 uM CTCB 405, time 0.208333): 0.8183 and 0.7719 | TbPFK reaction time course reading (Figure 6a) (3.88 uM CTCB 405, time 0.225694): 0.818 and 0.7716 | TbPFK reaction time course reading (Figure 6a) (3.88 uM CTCB 405, time 0.243056): 0.8176 and 0.7712 | TbPFK reaction time course reading (Figure 6a) (3.88 uM CTCB 405, time 0.260417): 0.8186 and 0.7717 | TbPFK reaction time course reading (Figure 6a) (3.88 uM CTCB 405, time 0.277778): 0.8179 and 0.772 | TbPFK reaction time course reading (Figure 6a) (3.88 uM CTCB 405, time 0.295139): 0.8179 and 0.772 | TbPFK reaction time course reading (Figure 6a) (3.88 uM CTCB 405, time 0.3125): 0.8183 and 0.7709 | TbPFK reaction time course reading (Figure 6a) (3.88 uM CTCB 405, time 0.329861): 0.8178 and 0.772 | TbPFK reaction time course reading (Figure 6a) (3.88 uM CTCB 405, time 0.347222): 0.8175 and 0.7717 | TbPFK reaction time course reading (Figure 6a) (3.88 uM CTCB 405, time 0.364583): 0.8172 and 0.7705 | TbPFK reaction time course reading (Figure 6a) (3.88 uM CTCB 405, time 0.381944): 0.8177 and 0.771 | TbPFK reaction time course reading (Figure 6a) (3.88 uM CTCB 405, time 0.399306): 0.8169 and 0.7714 | TbPFK reaction time course reading (Figure 6a) (3.88 uM CTCB 405, time 0.416667): 0.8167 and 0.7713 | TbPFK reaction time course reading (Figure 6a) (11.66 uM CTCB 405, time 0.0173611): 0.8163 and 0.771 | TbPFK reaction time course reading (Figure 6a) (11.66 uM CTCB 405, time 0.0347222): 0.8163 and 0.7722 | TbPFK reaction time course reading (Figure 6a) (11.66 uM CTCB 405, time 0.0520833): 0.817 and 0.772 | TbPFK reaction time course reading (Figure 6a) (11.66 uM CTCB 405, time 0.0694444): 0.8178 and 0.7728 | TbPFK reaction time course reading (Figure 6a) (11.66 uM CTCB 405, time 0.0868056): 0.8181 and 0.7732 | TbPFK reaction time course reading (Figure 6a) (11.66 uM CTCB 405, time 0.208333): 0.8205 and 0.7747 | TbPFK reaction time course reading (Figure 6a) (11.66 uM CTCB 405, time 0.225694): 0.8216 and 0.7752 | TbPFK reaction time course reading (Figure 6a) (11.66 uM CTCB 405, time 0.243056): 0.8211 and 0.7762 | TbPFK reaction time course reading (Figure 6a) (11.66 uM CTCB 405, time 0.260417): 0.8207 and 0.7762 | TbPFK reaction time course reading (Figure 6a) (11.66 uM CTCB 405, time 0.277778): 0.8211 and 0.776 | TbPFK reaction time course reading (Figure 6a) (11.66 uM CTCB 405, time 0.295139): 0.8216 and 0.7765 | TbPFK reaction time course reading (Figure 6a) (11.66 uM CTCB 405, time 0.3125): 0.8212 and 0.776 | TbPFK reaction time course reading (Figure 6a) (11.66 uM CTCB 405, time 0.329861): 0.821 and 0.7757 | TbPFK reaction time course reading (Figure 6a) (11.66 uM CTCB 405, time 0.347222): 0.8222 and 0.7763 | TbPFK reaction time course reading (Figure 6a) (11.66 uM CTCB 405, time 0.364583): 0.8222 and 0.777 | TbPFK reaction time course reading (Figure 6a) (11.66 uM CTCB 405, time 0.381944): 0.8214 and 0.7765 | TbPFK reaction time course reading (Figure 6a) (11.66 uM CTCB 405, time 0.399306): 0.8213 and 0.7761 | TbPFK reaction time course reading (Figure 6a) (11.66 uM CTCB 405, time 0.416667): 0.8222 and 0.7767 | TbPFK reaction time course reading (Figure 6a) (35 uM CTCB 405, time 0.0173611): 0.7756 and 0.7745 | TbPFK reaction time course reading (Figure 6a) (35 uM CTCB 405, time 0.0347222): 0.7764 and 0.775 | TbPFK reaction time course reading (Figure 6a) (35 uM CTCB 405, time 0.0520833): 0.7768 and 0.776 | TbPFK reaction time course reading (Figure 6a) (35 uM CTCB 405, time 0.0694444): 0.7773 and 0.7765 | TbPFK reaction time course reading (Figure 6a) (35 uM CTCB 405, time 0.0868056): 0.7775 and 0.7762 | TbPFK reaction time course reading (Figure 6a) (35 uM CTCB 405, time 0.208333): 0.7795 and 0.7789 | TbPFK reaction time course reading (Figure 6a) (35 uM CTCB 405, time 0.225694): 0.7795 and 0.7793 | TbPFK reaction time course reading (Figure 6a) (35 uM CTCB 405, time 0.243056): 0.7796 and 0.7785 | TbPFK reaction time course reading (Figure 6a) (35 uM CTCB 405, time 0.260417): 0.7799 and 0.779 | TbPFK reaction time course reading (Figure 6a) (35 uM CTCB 405, time 0.277778): 0.7802 and 0.7796 | TbPFK reaction time course reading (Figure 6a) (35 uM CTCB 405, time 0.295139): 0.7801 and 0.7781 | TbPFK reaction time course reading (Figure 6a) (35 uM CTCB 405, time 0.3125): 0.7802 and 0.7793 | TbPFK reaction time course reading (Figure 6a) (35 uM CTCB 405, time 0.329861): 0.7804 and 0.7797 | TbPFK reaction time course reading (Figure 6a) (35 uM CTCB 405, time 0.347222): 0.7805 and 0.78 | TbPFK reaction time course reading (Figure 6a) (35 uM CTCB 405, time 0.364583): 0.7804 and 0.7795 | TbPFK reaction time course reading (Figure 6a) (35 uM CTCB 405, time 0.381944): 0.7807 and 0.7799 | TbPFK reaction time course reading (Figure 6a) (35 uM CTCB 405, time 0.399306): 0.7808 and 0.7801 | TbPFK reaction time course reading (Figure 6a) (35 uM CTCB 405, time 0.416667): 0.7806 and 0.7805
